One may read the IC50 as the concentration that inhibits the measured activity by half. Low values mean inhibition by little substance, high ones a need for much substance.

This is an account of results in ChEMBL document CHEMBL1133105, “Antimalarial, antitrypanosomal, and antileishmanial activities and cytotoxicity of bis(9-amino-6-chloro-2-methoxyacridines): influence of the linker” (J Med Chem, 2000).

The experiment has as its system Trypanosoma cruzi. Kind of experiment: In Vitro inhibition concentration against Trypomastigote form of Trypanosoma cruzi. The class given is functional, organism-based.

Regarding `O=C(Cn1ccnc1[N+](=O)[O-])NCc1ccccc1` [BENZNIDAZOLE], 3.13 µM corresponded to half-maximal inhibition (IC50).
